These are yes or no findings as the source states them, for the method shown. Binding seen in cells or lysates may run through a third protein. Some results given as binding are weak or reduced against the parent protein; the word gives no strength.

The chains behind the UniProt entries cited, without tags or fusion partners. Where a name states a change or a piece, a line headed by the entry shows the natural chain unless it says otherwise.
UniProt P49674: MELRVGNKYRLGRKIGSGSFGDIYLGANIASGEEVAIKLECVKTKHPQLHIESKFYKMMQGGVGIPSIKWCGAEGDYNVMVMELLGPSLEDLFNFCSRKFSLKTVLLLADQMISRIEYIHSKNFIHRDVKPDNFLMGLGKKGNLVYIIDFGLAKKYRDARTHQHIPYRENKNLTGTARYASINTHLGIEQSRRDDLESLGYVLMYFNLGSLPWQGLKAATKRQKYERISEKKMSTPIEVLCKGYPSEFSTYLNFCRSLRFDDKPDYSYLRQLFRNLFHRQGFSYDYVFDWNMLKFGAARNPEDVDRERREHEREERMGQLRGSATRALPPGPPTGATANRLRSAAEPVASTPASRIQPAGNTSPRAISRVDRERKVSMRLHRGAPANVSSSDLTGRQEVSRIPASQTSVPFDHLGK
UniProt O75494: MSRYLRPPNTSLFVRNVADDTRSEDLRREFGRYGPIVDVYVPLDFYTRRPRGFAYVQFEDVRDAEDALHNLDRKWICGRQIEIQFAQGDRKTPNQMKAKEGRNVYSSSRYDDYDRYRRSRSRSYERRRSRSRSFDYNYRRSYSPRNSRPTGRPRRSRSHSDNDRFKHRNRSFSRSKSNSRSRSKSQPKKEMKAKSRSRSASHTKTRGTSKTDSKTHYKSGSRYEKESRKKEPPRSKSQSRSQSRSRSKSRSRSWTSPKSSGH

The text below walks through data of PMC12391806.

One experiment concerns the target V5-tagged CK1ε (UniProt P49674). The experiment in a line: co-IP; HEK293T cotransfected with CK1ε-V5 and Flag-tagged WT or point-mutated SRSF10 (Fig. 8F); beads not stated.
A further experiment concerns the target Flag-tagged SRSF10 (WT) (UniProt O75494). The experiment in a line: co-IP; HEK293T cotransfected with Flag-SRSF10 and CK1ε-GFP; immunoprecipitated with anti-Flag beads; Western blot. In general terms: Immunoblotting shows a protein as a band on a membrane.
In experiment [1] the target is serine/arginine-rich splicing factor 10 (SRSF10), endogenous in A549 cells (human (endogenous in A549)) (UniProt O75494). The experiment in a line: co-IP; A549 cell lysates immunoprecipitated with anti-SRSF10 antibody or IgG; endogenous CK1ε and CK1δ detected by Western blot.
Experiment [2] has as its target Flag-tagged kinase-dead mutant CK1ε-K38R (UniProt P49674). The experiment is described as follows: co-IP; HEK293T transfected with Flag-CK1ε, Flag-CK1ε-K38R or control vector; immunoprecipitated with anti-Flag beads; endogenous SRSF10 detected.
A further experiment concerns the target Flag-tagged CK1ε (WT) (UniProt P49674). Described as above.

Regarding “Flag-tagged SRSF10 (WT) (from UniProt O75494 1-262)”, the binding result in the experiment with V5-tagged CK1ε is “binds”. In the case of “GFP-tagged CK1ε (from UniProt P49674 1-416) (enzyme)”, the binding entry with Flag-tagged SRSF10 (WT) is “binds”. Regarding “SRSF10-S23A-Flag (from UniProt O75494 1-262)”, the binding result with V5-tagged CK1ε is listed as “binds”. Still for that read-out and setting: with “SRSF10-S23A/S133A-Flag (from UniProt O75494 1-262)” the entry was “binds”; with “SRSF10-S133A-Flag (from UniProt O75494 1-262)”, “binds”. For “casein kinase 1ε (CK1ε), endogenous in A549 cells (from UniProt P49674 1-416) (enzyme)”, the binding entry in experiment [1] is given as “binds”. Turning to “serine/arginine-rich splicing factor 10 (SRSF10), endogenous in HEK293T cells (from UniProt O75494 1-262)”, the results for the binding entry (in experiment [2]; with Flag-tagged CK1ε (WT)) were “no binding” and “binds”, respectively.
